Experimental data as given in US20090227528A1, “Pulmonary administration of an antithrombotic compound” (priority 2004, published 2009).
Several values for one entry are separate records, joined by “and”; a condition that tells them apart may be missing. Equal entries are not always repeated. Part of at least one peptide drawing is inferred or uncertain, most often the ends.

Experiment: Comparative study between intravenous and intratracheal administration of Org 42675 (plasma concentration via anti-Xa activity, amidolytic S2222)
Format: in vivo, male Wistar rats
Details: rat; for F (% bioavailabilty): 100 nmol/kg intratracheal vs i.v. (100%)
Protocol: The test was carried out in male Wistar rats of 300-400 gr. The rats were anaesthetised by inhalation of a mixture of O2/N2O/isoflurane, after which the right jugular vein was cannulated. Translumination of the neck enabled visibility of the vocal cords and an oral needle was inserted when the vocal cords were open after which 100 μl/300 gr body weight of a solution prepared from the pharmaceutical formulation of Example 1, diluted with an aqueous 0.9% sodium chloride solution, containing 300 nmol of Org 42675/ml was instilled at approximately 1 cm before the bifurcation of the trachea. The same solution and dose was also used to perform the i.v. study. After i.v. administration blood was sampled at 1, 6, 15, 30 and 60 minutes and after 2, 4, 7 and 24 hours. After intra-tracheal administration blood was sampled at 0.5-1-2-4-7 and 24 hours after administration. Blood was centrifuged and the plasma was siphoned off and stored at −20° C. until use. The concentration of Org 42675 was measured amidolytically with S2222 (Chromogenix, Chromogenics Ltd, Molndal, Sweden) by determination of the anti-Xa activity based on the method of Teien and Lie in the obtained plasma samples against a calibration curve which was made of the stock solution of 300 nmol/ml itself. (Teien A N, Lie M. Evaluation of an amidolytic heparin assay method increased sensitivity by adding purified antithrombin III. Thromb. Res. 1977, 10: 399-410). The concentration in the samples was expressed in nmol/ml and the kinetic parameters were calculated with the noncompartment model of WinNonlin (see Tables 1 and 2). After intratracheal administration the maximum concentration was already obtained at 0.5 hour after administration which was also the first time point of blood collection.

[1] = 100 nmol/kg intratracheal, individual rats
[2] = 100 nmol/kg intravenous, individual rats

## COc1cc(C)c(S(=O)(=O)NC(CC(=O)NCCCC(=O)NCCOCCOCCOCCO[C@H]2[C@H](OC)[C@@H](OC)[C@@H](O[C@H]3[C@H](OC)[C@@H](OC)[C@H](O[C@H]4[C@H](OS(=O)(=O)O)[C@@H](OS(=O)(=O)O)[C@@H](O[C@H]5[C@H](OC)[C@@H](OC)[C@H](O[C@H]6[C@H](OC)[C@@H](OS(=O)(=O)O)[C@@H](OC)O[C@@H]6COS(=O)(=O)O)O[C@H]5C(=O)O)O[C@@H]4COS(=O)(=O)O)O[C@@H]3C(=O)O)O[C@@H]2COS(=O)(=O)O)C(=O)NC(Cc2ccc(C(=N)N)cc2)C(=O)N2CCCCC2)c(C)c1C (stereo partly drawn) [Org 42675]
Individual rats
  F (% bioavailabilty): 72.5% and 66.0%
Mean (n=3)
  F (% bioavailabilty): 71.3%
[1]
  AUCinf: 5.3083 µM·h and 4.8327 µM·h
  AUClast: 5.205 µM·h and 4.6205 µM·h
  Cmax: 720 nM and 810 nM
[2]
  AUCinf: 6.3462 µM·h
  AUClast: 6.2929 µM·h
  Cmax: 2670 nM
100 nmol/kg intravenous, mean (n=2)
  AUCinf: 7.40 µM·h
